These are yes or no findings as the source states them, for the method shown. Binding seen in cells or lysates may run through a third protein. These calls come from enrichment with a bait or labelling near it, and not all partners need be listed. No binding means not detected with the bait.
Molecular target: SARS-CoV-2 Orf9b, 2xStrep-tagged, expressed in HEK293T cells (SARS-CoV-2) (UniProt P0DTD2)
Assay: affinity purification with mass spectrometry

Substance: MTARC2, human, endogenous in HEK293T cells (from UniProt Q969Z3 36-335)
- binding: no binding
